Experimental data published in US6593337B1, “Tricyclic compounds useful as HIV reverse transcriptase inhibitors” (Bristol-Myers Squibb Pharma Company, priority 1999, dated 2003).
Converted amounts (≈) assume the structure as drawn.

Tested on: HIV-1 (RF)
Experiment: HIV RNA assay: microplate based compound evaluation in HIV-1 infected MT-2 cells (IC90)
Type: cell-based
Details: Human immunodeficiency virus 1, MT2, 72 h; HIV-1 (RF) in MT-2 cells, 3 days; virus dilutions selected to give this value; read-out: IC90 (concentration of compound required to reduce the HIV RNA level by 90%)
Protocol: Plasmid pDAB 72 containing both gag and pol sequences of BH10 (bp 113-1816) cloned into PTZ 19R was prepared according to Erickson-Viitanen et al. AIDS Research and Human Retroviruses 1989, 5, 577. The plasmid was linearized with Bam HI prior to the generation of in vitro RNA transcripts using the Riboprobe Gemini system II kit (Promega) with T7 RNA polymerase. Synthesized RNA was purified by treatment with RNase free DNAse (Promega), phenol-chloroform extraction, and ethanol precipitation. RNA transcripts were dissolved in water, and stored at −70° C. The concentration of RNA was determined from the A260.
Biotinylated capture probes were purified by HPLC after synthesis on an Applied Biosystems (Foster City, Calif.) DNA synthesizer by addition of biotin to the 5′ terminal end of the oligonucleotide, using the biotin-phosphoramidite reagent of Cocuzza, Tet. Lett. 1989, 30, 6287. […]
MT-2 and MT-4 cells were maintained in RPMI 1640 supplemented with 5% fetal calf serum (FCS) for MT-2 cells or 10% FCS for MT-4 cells, 2 mM L-glutamine and 50 μg/mL gentamycin, all from Gibco. […] Infectious titers of HIV-1(RF) stocks were 1-3×10^7 PFU (plaque forming units)/mL as measured by plaque assay on MT-2 cells (see below). […]

Compound `Nc1ccn([C@H]2CC[C@@H](CO)O2)c(=O)n1` [ddC, 2′,3′-dideoxycytidine] has an IC90 of 0.2 µg/mL (≈ 0.947 µM).
